# Test results taken from article PMC7819943, “Rice protein-binding microarrays: a tool to detect cis-acting elements near promoter regions in rice”.
# The chains behind the UniProt entries cited, without tags or fusion partners.
# UniProt Q0JBA9, entry or part of it: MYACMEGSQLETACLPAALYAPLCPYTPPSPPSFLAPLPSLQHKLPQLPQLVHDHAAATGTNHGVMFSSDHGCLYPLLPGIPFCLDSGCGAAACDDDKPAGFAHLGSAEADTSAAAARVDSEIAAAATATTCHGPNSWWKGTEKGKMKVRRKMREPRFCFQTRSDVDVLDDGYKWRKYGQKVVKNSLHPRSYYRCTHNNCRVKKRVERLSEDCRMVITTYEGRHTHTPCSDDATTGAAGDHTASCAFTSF
# The list shows a part of the results.
# Target: OsWRKY34 (Oryza sativa, UniProt Q0JBA9 1-250)
# Test: protein-binding microarray (RPBM); PBS, 2% BSA, 51.3 ng/ul salmon testes DNA, 50 uM zinc acetate, 200 nM TF, 25 C, 1 h; high values mean tight binding
# Conditions: protein: recombinant; tags: N-terminal polyhistidine and DsRed monomer fusion (pET32a); label: CyDye5-dUTP incorporated in the synthesized complementary strand; 3' TTTTT single-stranded linker to array surface; dsDNA, one strand shown
# How it was run: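 Binding signal here means per-feature fluorescence intensity in arbitrary units. The values were read on an Axon 4000B scanner after a custom Agilent array, double-stranded by primer extension with Cy5-dUTP, was incubated with 200 nM protein at 25 °C for 1 h in PBS with 2% BSA, salmon testes DNA and 50 µM zinc acetate, then washed. The proteins were transcription factors with an N-terminal polyhistidine tag and DsRed, expressed in E. coli BL21-CodonPlus and purified on Ni–NTA.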
row,Sequence,binding signal
1,AGTCAGAATGTACATACTCCACCGCGTACGCCTAGCATTTCGGAGTCACCTAGTGCAG,8720 fluorescence intensity (a.u.)
2,GCATTTCGAAGGAGTTTTGGAGGATTGGCTTAGTATTTCTCGGAGTCACCTAGTGCAG,10400 fluorescence intensity (a.u.)
3,ATGAAGCATTCTTCTTCTTCTTCTTCTTCTTGGGTCTTCTCGGAGTCACCTAGTGCAG,8940 fluorescence intensity (a.u.)
4,AGCTATCTATTACTAGTTCTTCCTTCGATTCCAAGCATATCGGAGTCACCTAGTGCAG,9030 fluorescence intensity (a.u.)
5,CTCCCGTGCACTCCTACTAGCCGTTGCGCCTCTCCTCTGCCGGAGTCACCTAGTGCAG,11000 fluorescence intensity (a.u.)
6,CACACCCATCTGTTCCCTTCCAGCATCCACAACCTCTTCACGGAGTCACCTAGTGCAG,10100 fluorescence intensity (a.u.)
7,AAATTTTGCTTGTTTGTACATGGTTATTTAGTTTTTTCAACGGAGTCACCTAGTGCAG,11600 fluorescence intensity (a.u.)
8,TCATCTCATTTCTCTCTTCTTGTCACCTTGTTCTCTGCACCGGAGTCACCTAGTGCAG,9730 fluorescence intensity (a.u.)
9,ACCTTGCTCCCGTCCGTCCGTACGTCGGAACGCAGCTATGCGGAGTCACCTAGTGCAG,8060 fluorescence intensity (a.u.)
10,CATCATCTTCTTCTTCTTCTTCTTCTTCTTCTTCTTCTTCCGGAGTCACCTAGTGCAG,11800 fluorescence intensity (a.u.)
11,ATCCTATTTGTGTCACCATCACCTGTAGATTTTATGATTACGGAGTCACCTAGTGCAG,10300 fluorescence intensity (a.u.)
12,TCACACTGTTGTTAAAAGGTCCATTATTATGTGTTCCCATCGGAGTCACCTAGTGCAG,9850 fluorescence intensity (a.u.)
13,TATTCTGCACTATCATTCCTAGATCTTTACATTTCCTTAGCGGAGTCACCTAGTGCAG,8400 fluorescence intensity (a.u.)
14,TGCTGTCATGCACCCCATTCGTCCGGGTTCAATTCTCCTCCGGAGTCACCTAGTGCAG,10400 fluorescence intensity (a.u.)
15,GTCACCATCCCGTCTTCTCCGCCAGTCGCCTCACGCCCGGCGGAGTCACCTAGTGCAG,8870 fluorescence intensity (a.u.)
16,GCCAGCTCGTCCACCATAGTTGCCTTCCATCCCGCCATAGCGGAGTCACCTAGTGCAG,12100 fluorescence intensity (a.u.)
17,GCATAACCTGTAGCAACCTCACCGGCCATGTCCTCAAGCTCGGAGTCACCTAGTGCAG,12000 fluorescence intensity (a.u.)
18,GGATACTGTGCCATTGTGCCTTTCTCGGGTCATCAGTCCACGGAGTCACCTAGTGCAG,11200 fluorescence intensity (a.u.)
19,CAATGGCCACGCCGTCTTGCAACCGCACTACTGCAGTTACCGGAGTCACCTAGTGCAG,8850 fluorescence intensity (a.u.)
20,CTATCTAAATTAATACTCAATTAATCATATTTTAATTACCCGGAGTCACCTAGTGCAG,15300 fluorescence intensity (a.u.)
21,CACGTCCATCTGCCCAATCCGGGTTCATCGGAAGACGACGCGGAGTCACCTAGTGCAG,8850 fluorescence intensity (a.u.)

row,Sequence,binding signal
1,GTGTGTTGTTGTTCTTGTTTTGGTTCTTTTCTAGTAGTATCGGAGTCACCTAGTGCAG,8750 fluorescence intensity (a.u.)
2,GCGGGTGAAAAAGGTGGGGAGCTGAACAAAACGACTGGCTCGGAGTCACCTAGTGCAG,8880 fluorescence intensity (a.u.)
3,GTTTTCTTTCATTAAAAGCTGCATTTCCATATTATTTTTTCGGAGTCACCTAGTGCAG,13900 fluorescence intensity (a.u.)
4,ATTTCCTACAAGTTCATGCGCATTCATACAATGAACCCCACGGAGTCACCTAGTGCAG,9310 fluorescence intensity (a.u.)
5,ACACTTATTTTGGGACGGATGTGGTATTAAGTCACACTCACGGAGTCACCTAGTGCAG,9020 fluorescence intensity (a.u.)
6,AGTTTTGCACTATTCATCTCCAATGTTTGACCGTTCGTTTCGGAGTCACCTAGTGCAG,10300 fluorescence intensity (a.u.)
7,CCCCACGACGCCACGTACTCTCGGTCTCTCGCCCCGCGCCCGGAGTCACCTAGTGCAG,11000 fluorescence intensity (a.u.)
8,GTTATTATTCCCATTCTATTTTTTTTCTTCTAGGTCGCTCCGGAGTCACCTAGTGCAG,10600 fluorescence intensity (a.u.)
9,TAAACCTCTCCCTCTATTCCCAAACCCCAACATCTCCACTCGGAGTCACCTAGTGCAG,8280 fluorescence intensity (a.u.)
10,AGACTAGAAACTTTCGGCCCGTCATTCTCATATTTTCGAACGGAGTCACCTAGTGCAG,8660 fluorescence intensity (a.u.)
11,GCTAGCCTCACTCCATGCTCACCACTTTCTCGGCTTTCTCCGGAGTCACCTAGTGCAG,14100 fluorescence intensity (a.u.)
12,CACACGCTACCCCGACTCGTCGCCTTCGCCTTGCTCGTCTCGGAGTCACCTAGTGCAG,18000 fluorescence intensity (a.u.)
13,TCCAGTTTATCTCACTTCTAGTTTATTTTTCTTCTAAAATCGGAGTCACCTAGTGCAG,9090 fluorescence intensity (a.u.)
14,GACCACAGCTGCACCCACACACCCACCTTGCTCTTTCTCGCGGAGTCACCTAGTGCAG,8170 fluorescence intensity (a.u.)
15,GCAATGTTGGGCTGTGGGTAATTATTTTGATCAAAAGTCACGGAGTCACCTAGTGCAG,11900 fluorescence intensity (a.u.)
16,TTGGATGGAAGGCCAAACATATGCACTGTTTATTTTTCTGCGGAGTCACCTAGTGCAG,8210 fluorescence intensity (a.u.)
17,GTGGCTGAGGTGTGTTGTCCGATATTTCTCTTCCCATCCGCGGAGTCACCTAGTGCAG,8500 fluorescence intensity (a.u.)
18,TTGACTTTTTATTAACGTTTGACCATTTGTTTTATTTAAACGGAGTCACCTAGTGCAG,12000 fluorescence intensity (a.u.)
19,AAACAGGTAGAAGGAGGGAGGGGAAGGTGGGAGCGAATATCGGAGTCACCTAGTGCAG,9720 fluorescence intensity (a.u.)
20,CCTCGGTTGTTTTGTGCTGAGAGTGATTTTGGTGTGAATACGGAGTCACCTAGTGCAG,8540 fluorescence intensity (a.u.)
21,AGTTGAGGGACCTTAGGTGTACTCTTTCCTTTTGTCCATTCGGAGTCACCTAGTGCAG,11100 fluorescence intensity (a.u.)

# 2 neighbouring entries from above, for reference:
row,Sequence,binding signal
19,AAACAGGTAGAAGGAGGGAGGGGAAGGTGGGAGCGAATATCGGAGTCACCTAGTGCAG,9720 fluorescence intensity (a.u.)
20,CCTCGGTTGTTTTGTGCTGAGAGTGATTTTGGTGTGAATACGGAGTCACCTAGTGCAG,8540 fluorescence intensity (a.u.)

# Later entries

row,Sequence,binding signal
1,CCTCCCACGGCATCCTCCCGCGCACTCTACGTCTCTACTGCGGAGTCACCTAGTGCAG,8120 fluorescence intensity (a.u.)
2,TTCTTCCTCCTGGTAGATGGTTGGTCACATTGGTCAAGATCGGAGTCACCTAGTGCAG,10900 fluorescence intensity (a.u.)
3,CTCGTTGGTCTCCTCTCTCTCTCTGTGTTCTTGGTGTTCCCGGAGTCACCTAGTGCAG,9580 fluorescence intensity (a.u.)
4,AAACCACCCCACCTTGCATACTATGTTCATCCTCGTGTCACGGAGTCACCTAGTGCAG,10100 fluorescence intensity (a.u.)
5,CCATCCACCGCCGCCTCCGCTCTCTCTTCTTCTTCTTCCTCGGAGTCACCTAGTGCAG,10800 fluorescence intensity (a.u.)
6,ACACGTAATGGATACTTTTGCCGAAGTGAACACATGCTTTCGGAGTCACCTAGTGCAG,8940 fluorescence intensity (a.u.)
7,ACTTTGACTAGGGTTGGACTAATATATCTCTCTCCCTCACCGGAGTCACCTAGTGCAG,9740 fluorescence intensity (a.u.)
8,GGACCTGTTTGTTTGTTTTTTGTTTTACTTCTTCTAATATCGGAGTCACCTAGTGCAG,12500 fluorescence intensity (a.u.)
9,ACTCCACTTTCTCGCCTCTACTGTTTGCCATGGCCCAAATCGGAGTCACCTAGTGCAG,15600 fluorescence intensity (a.u.)
10,CACTTTGTTTTTTTCTCTGCATCGTCGTCGTACCTAGCACCGGAGTCACCTAGTGCAG,8630 fluorescence intensity (a.u.)
11,ATCACGGGTGGGGCGTCGGATCTCGCGATCACGGGCGGGCCGGAGTCACCTAGTGCAG,11800 fluorescence intensity (a.u.)
12,AGTTTTATTTCTCATAATGTATCCTAATTTTTAGCCTAATCGGAGTCACCTAGTGCAG,8660 fluorescence intensity (a.u.)
13,CATGCCACTCTCCGTCAGTTGACCGTGTGTTGACCATTAACGGAGTCACCTAGTGCAG,13400 fluorescence intensity (a.u.)
14,AGCTCATTTGTTTGTTTGTTTGTTTTTGTGTGTGTCGAAGCGGAGTCACCTAGTGCAG,9050 fluorescence intensity (a.u.)
15,TTCCCCAATCTCCCGCGCGCTTGCTCTTCCTGGGCTTTTTCGGAGTCACCTAGTGCAG,9230 fluorescence intensity (a.u.)
16,TTAAAAAAAGTTGGGTAATTGTGGGGTTTGTTTTTTCTCCCGGAGTCACCTAGTGCAG,9490 fluorescence intensity (a.u.)
17,TTTCACTCTACCCATTCCACATTACCGATTCTCGTGAAGCCGGAGTCACCTAGTGCAG,9420 fluorescence intensity (a.u.)
18,ATACGCCATACTCATGTACCATCCATTTTGTCCTTTAAAACGGAGTCACCTAGTGCAG,11200 fluorescence intensity (a.u.)
19,ATTCGCCATTTCCGCCCACTGCCACGCCAACGCCACTGCTCGGAGTCACCTAGTGCAG,8280 fluorescence intensity (a.u.)
20,ATTGTAATCTAACGGTGTAGCTTTTTTCTCTTTTCTTCGACGGAGTCACCTAGTGCAG,8190 fluorescence intensity (a.u.)
21,TAACTCCATTGACTATTTAGCATATCTTTGACCATTCGTCCGGAGTCACCTAGTGCAG,13700 fluorescence intensity (a.u.)

# Part of the list above in a different format.
row	Sequence	binding signal
2	TTCTTCCTCCTGGTAGATGGTTGGTCACATTGGTCAAGATCGGAGTCACCTAGTGCAG	10900 fluorescence intensity (a.u.)
3	CTCGTTGGTCTCCTCTCTCTCTCTGTGTTCTTGGTGTTCCCGGAGTCACCTAGTGCAG	9580 fluorescence intensity (a.u.)
6	ACACGTAATGGATACTTTTGCCGAAGTGAACACATGCTTTCGGAGTCACCTAGTGCAG	8940 fluorescence intensity (a.u.)
13	CATGCCACTCTCCGTCAGTTGACCGTGTGTTGACCATTAACGGAGTCACCTAGTGCAG	13400 fluorescence intensity (a.u.)
17	TTTCACTCTACCCATTCCACATTACCGATTCTCGTGAAGCCGGAGTCACCTAGTGCAG	9420 fluorescence intensity (a.u.)

# (further entries)

row,Sequence,binding signal
1,GTTCTTTCCTTCCTCGTGAGGGTTCTTGCTTCTTGGCTTCCGGAGTCACCTAGTGCAG,12600 fluorescence intensity (a.u.)
2,CTTTTGGGGTGGAACTGGTATAAGTTTGACTTTTGGGGAACGGAGTCACCTAGTGCAG,14700 fluorescence intensity (a.u.)
3,CGGGGAGGGATTCTAATTAGTCAAGTGAAAGTCCACTCATCGGAGTCACCTAGTGCAG,10900 fluorescence intensity (a.u.)
4,GCCTGCAGATCAAGCCAGGAGCTTCTTGAATTTCTTCTCTCGGAGTCACCTAGTGCAG,8710 fluorescence intensity (a.u.)
5,GCGCGGGCAGCGTCGGCATTAGAGGGGTGGTGGCGGGCGGCGGAGTCACCTAGTGCAG,10500 fluorescence intensity (a.u.)
6,TTTTTGTTTCTATTGGAGGTTGTCATGTTTATCTACCTTTCGGAGTCACCTAGTGCAG,9650 fluorescence intensity (a.u.)
7,GCTTGCGAGCCTAGGCCATCGTGTGTTTATATTGATTATTCGGAGTCACCTAGTGCAG,8450 fluorescence intensity (a.u.)
8,CATGCCCTTTGAGACTTTGATCGAGTGCATGCTTAATTACCGGAGTCACCTAGTGCAG,9550 fluorescence intensity (a.u.)
9,TTATCTCCTCGGCTTTTCTCGTCTCGTTCTCTCCTCCCTACGGAGTCACCTAGTGCAG,10500 fluorescence intensity (a.u.)
10,GCCCTTCTATGTGATATTCTCTTTCTGATCGAGTTATTATCGGAGTCACCTAGTGCAG,10700 fluorescence intensity (a.u.)
11,AGTATGCAGAACTGCCATCTCTTATTAGTACCAACTATATCGGAGTCACCTAGTGCAG,10200 fluorescence intensity (a.u.)
12,CTTCTACTGCGTCGACTTGGAATTTTGCCGAATCTTTTTTCGGAGTCACCTAGTGCAG,10400 fluorescence intensity (a.u.)
13,AACGCTGAACCTTCTGTCCTCTTACCTTAGTAAGTATTGCCGGAGTCACCTAGTGCAG,10900 fluorescence intensity (a.u.)
14,GGGTCAGTTGATTGGTCGAGTTGAGGATGGCGGTGTTATACGGAGTCACCTAGTGCAG,9040 fluorescence intensity (a.u.)
15,TAATATCTTGTGTAGTCTCACCGTGCATGTTTATTTTTTTCGGAGTCACCTAGTGCAG,10800 fluorescence intensity (a.u.)
16,GCAATTCTCTCCCACTTCCGATCTCTTCTTCCGCTTGGACCGGAGTCACCTAGTGCAG,8130 fluorescence intensity (a.u.)
17,CAGCGCCGCCGCCACCACCACCACCGCTTCGTCGTCTCTCCGGAGTCACCTAGTGCAG,10700 fluorescence intensity (a.u.)
18,TCTTTCGAGTTTTCTTATTATATGTTTCACCCGAATCTTTCGGAGTCACCTAGTGCAG,9260 fluorescence intensity (a.u.)
19,ACTCCGCTGTATATATATCTTCCTTTTCCTTTCTTTCTCTCGGAGTCACCTAGTGCAG,11000 fluorescence intensity (a.u.)
20,ACCTGAAATCCCGCTTTGTCATTGGGTACGTTGTGTCATCCGGAGTCACCTAGTGCAG,9460 fluorescence intensity (a.u.)
21,GTTTTTCGTCGCTTCTCTTCTTGAAGACGTCGTTTTGGCACGGAGTCACCTAGTGCAG,8370 fluorescence intensity (a.u.)
